# Source: the supplement of paper PMC4604168 (melanoma cell lines)
# This is one part of the list. Repeats are few or missing, and single values can be far off.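 Imaging used 1,536-well plates; nuclei positive for cleaved PARP by antibody were divided by total DNA-stained nuclei to yield the apoptosis fraction. Doses for screening kept most cells viable, and cell lines differ markedly in resting and induced cleaved-PARP levels.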
# Columns and labels:
# Test in all cases: cleaved PARP positive nuclei fraction relative to DMSO control; melanoma cells; higher = more apoptosis
# Conditions in all cases: library dose: low library concentration; 72 h
# COLO792 = tested on: COLO792
# COLO800 = tested on: COLO800
# COLO829 = tested on: COLO829
# G361 = tested on: G361
# IPC-298 = tested on: IPC-298
# IST-MEL1 = tested on: IST-MEL1
# LB2518-MEL = tested on: LB2518-MEL
# LOXIMVI = tested on: LOXIMVI
# MZ2-MEL = tested on: MZ2-MEL
# MeWo = tested on: MeWo
# RPMI7951 = tested on: RPMI7951
# RVH-421 = tested on: RVH-421
# SkMel28 = tested on: SkMel28
# SkMel2 = tested on: SkMel2
# SkMel30 = tested on: SkMel30
# SkMel5 = tested on: SkMel5
# UACC257 = tested on: UACC257
# UACC62 = tested on: UACC62
SMILES,cleaved PARP positive nuclei fraction (COLO792) [%],cleaved PARP positive nuclei fraction (COLO800) [%],cleaved PARP positive nuclei fraction (COLO829) [%],cleaved PARP positive nuclei fraction (G361) [%],cleaved PARP positive nuclei fraction (IPC-298) [%],cleaved PARP positive nuclei fraction (IST-MEL1) [%],cleaved PARP positive nuclei fraction (LB2518-MEL) [%],cleaved PARP positive nuclei fraction (LOXIMVI) [%],cleaved PARP positive nuclei fraction (MZ2-MEL) [%],cleaved PARP positive nuclei fraction (MeWo) [%],cleaved PARP positive nuclei fraction (RPMI7951) [%],cleaved PARP positive nuclei fraction (RVH-421) [%],cleaved PARP positive nuclei fraction (SkMel28) [%],cleaved PARP positive nuclei fraction (SkMel2) [%],cleaved PARP positive nuclei fraction (SkMel30) [%],cleaved PARP positive nuclei fraction (SkMel5) [%],cleaved PARP positive nuclei fraction (UACC257) [%],cleaved PARP positive nuclei fraction (UACC62) [%]
"Clc1ccc(Nc2nnc(Cc3ccncc3)c3ccccc23)cc1 [vatalanib] + O=c1cc(-c2cccc3c2Sc2ccccc2S3)oc(N2CCOCC2)c1 [KU55933] (first compound 2 µM, partner dose 1 µM)",246,37.4,123,72.5,117,139,62.4,60.1,92.2,105,47.8,52.7,87.4,54.2,46.8,231,111,81.9
"CC(=O)c1c(C)c2cnc(Nc3ccc(N4CCNCC4)cn3)nc2n(C2CCCC2)c1=O [palbociclib] + Cc1cc([N+](=O)[O-])ccc1NS(=O)(=O)c1cc(Cl)ccc1Cl [FH535] (first compound 0.04 µM, partner dose 1 µM)",95.5,135,66.6,110,90.6,119,95.3,63.5,109,61.4,47.2,26.9,124,16.9,128,102,265,94.8
"CC(=O)c1c(C)c2cnc(Nc3ccc(N4CCNCC4)cn3)nc2n(C2CCCC2)c1=O [palbociclib] + COc1cc2ncnc(Nc3ccc(Oc4ccccc4)cc3)c2cc1OC [SrcI1] (first compound 0.04 µM, partner dose 2 µM)",210,85,184,31.3,58.6,63.2,70.3,265,201,106,200,189,272,125,75.3,245,357,159
"OCc1c[nH]c2ccccc12 [Indole-3-carbinol] + COc1ccc(COc2ccc(Cc3cnc(N)nc3N)cc2OC)cc1 [GW2580] (first compound 0.8 µM, partner dose 1 µM)",135,109,141,103,44.9,110,37.4,80.7,75.7,60.6,91.9,122,58.2,61.5,595,75.1,164,75.8
"Clc1ccc(Nc2nnc(Cc3ccncc3)c3ccccc23)cc1 [vatalanib] + N#Cc1c(O)c2c(-c3ccc(-c4ccccc4O)cc3)csc2[nH]c1=O [A769662] (first compound 2 µM, partner dose 2 µM)",76.3,104,40.1,91.6,96.3,189,49.5,28.9,86.7,109,240,54.6,62.2,96.9,355,78.1,24.2,60.9
"C=CCNC1=C2C[C@@H](C)C[C@H](OC)[C@H](O)[C@@H](C)/C=C(\C)[C@H](OC(N)=O)[C@@H](OC)/C=C\C=C(/C)C(=O)NC(=CC1=O)C2=O [Tanespimycin] + Oc1nc(-c2ccc(C(F)(F)F)cc2)nc2c1CSCC2 [XAV939] (first compound 0.002 µM, partner dose 2 µM)",76.2,81.4,84.2,111,158,117,73.2,110,63.7,71.2,85.1,140,166,80.2,39.2,84.2,277,95.7
"CC(=O)c1c(C)c2cnc(Nc3ccc(N4CCNCC4)cn3)nc2n(C2CCCC2)c1=O [palbociclib] + Oc1nc(-c2ccc(C(F)(F)F)cc2)nc2c1CSCC2 [XAV939] (first compound 0.04 µM, partner dose 2 µM)",159,77.4,52.6,47.9,53.4,180,98.6,77,104,58.6,79.2,202,171,63.5,129,125,195,484
"C=CCNC1=C2C[C@@H](C)C[C@H](OC)[C@H](O)[C@@H](C)/C=C(\C)[C@H](OC(N)=O)[C@@H](OC)/C=C\C=C(/C)C(=O)NC(=CC1=O)C2=O [Tanespimycin] + O=c1cc(-c2cccc3c2Sc2ccccc2S3)oc(N2CCOCC2)c1 [KU55933] (first compound 0.002 µM, partner dose 1 µM)",29.2,152,76.4,173,52.1,213,58.4,151,185,55.7,347,130,153,102,83.5,141,53.1,137
"Clc1ccc(Nc2nnc(Cc3ccncc3)c3ccccc23)cc1 [vatalanib] + COc1ccc(-c2ccc3c(N4CCOCC4)nc(N4C[C@@H](C)O[C@@H](C)C4)nc3n2)cc1CO [KU0063794] (first compound 2 µM, partner dose 0.02 µM)",124,105,68.4,107,55.8,102,20,77.4,86.4,60.5,80.5,92.7,239,17,46.3,63,154,45.9
"C=CCNC1=C2C[C@@H](C)C[C@H](OC)[C@H](O)[C@@H](C)/C=C(\C)[C@H](OC(N)=O)[C@@H](OC)/C=C\C=C(/C)C(=O)NC(=CC1=O)C2=O [Tanespimycin] + Oc1cc(-c2nc(-c3ccccc3)[nH]c2-c2ccncc2)ccc1Cl [L779450] (first compound 0.002 µM, partner dose 0.2 µM)",91.8,54.4,243,134,43.5,136,143,120,68.9,84.1,155,81,189,57.7,80.5,145,95.9,135
"OCc1c[nH]c2ccccc12 [Indole-3-carbinol] + CCCCCCCCCCCC1=C(O)C(=O)C=C(O)C1=O [Embelin] (first compound 0.8 µM, partner dose 1.2 µM)",217,97.4,92.9,123,150,68.6,66,427,128,97.2,39.7,193,65.7,131,159,223,128,55.5
"CC(=O)c1c(C)c2cnc(Nc3ccc(N4CCNCC4)cn3)nc2n(C2CCCC2)c1=O [palbociclib] + O=C(O)C(=O)Nc1sc2c(c1C(=O)O)CCNC2 [TCS401] (first compound 0.04 µM, partner dose 1.66667 µM)",99.3,159,52.7,192,214,121,95.7,154,178,119,92.4,214,274,95.5,60.5,103,190,127
"OCc1c[nH]c2ccccc12 [Indole-3-carbinol] + CC(C)CCN1c2nc(Nc3cc(F)c(O)c(F)c3)ncc2N(C)C(=O)C1C [BID1870] (first compound 0.8 µM, partner dose 0.2 µM)",92.5,101,121,120,100,34.9,79.2,56.8,28.5,139,114,218,132,27.7,344,75.5,89.3,76.9
"OCc1c[nH]c2ccccc12 [Indole-3-carbinol] + O=C(Nc1ccccc1)c1cc([N+](=O)[O-])ccc1Cl [GW9662] (first compound 0.8 µM, partner dose 2 µM)",141,90.4,113,114,104,102,62.4,290,61.8,140,198,119,275,72.9,73.8,69.6,67.3,31.7
"OCc1c[nH]c2ccccc12 [Indole-3-carbinol] + N#Cc1c(O)c2c(-c3ccc(-c4ccccc4O)cc3)csc2[nH]c1=O [A769662] (first compound 0.8 µM, partner dose 2 µM)",127,122,244,96,89.6,136,69.5,117,21.3,221,28.9,134,63.7,67.7,123,207,119,60.6
"OCc1c[nH]c2ccccc12 [Indole-3-carbinol] + O=C(O)C(=O)Nc1sc2c(c1C(=O)O)CCNC2 [TCS401] (first compound 0.8 µM, partner dose 1.66667 µM)",31.1,73.4,104,63.1,47.7,92.4,75.3,46.8,118,43.5,30.5,197,38.6,83.6,90.7,173,129,124
"Clc1ccc(Nc2nnc(Cc3ccncc3)c3ccccc23)cc1 [vatalanib] + CCN(CC)CCCCNc1ncc2cc(-c3cc(OC)cc(OC)c3)c(NC(=O)NC(C)(C)C)nc2n1 [PD173074] (first compound 2 µM, partner dose 0.1 µM)",176,143,115,95.4,27.7,219,166,70.6,139,102,184,183,78.6,101,140,153,103,37.2
"CC(=O)c1c(C)c2cnc(Nc3ccc(N4CCNCC4)cn3)nc2n(C2CCCC2)c1=O [palbociclib] + COc1ccc2c(c1)CCC1C2CCC2(C)C(NCCCCCCN3C(=O)C=CC3=O)CCC12 [U73122] (first compound 0.04 µM, partner dose 0.4 µM)",110,114,149,102,29.3,108,37.1,122,52.9,29.9,49.2,167,112,54.4,31.3,40.9,120,104

# Retrieved one by one from the entries so far:
SMILES,cleaved PARP positive nuclei fraction (COLO792) [%],cleaved PARP positive nuclei fraction (COLO800) [%],cleaved PARP positive nuclei fraction (COLO829) [%],cleaved PARP positive nuclei fraction (G361) [%],cleaved PARP positive nuclei fraction (IPC-298) [%],cleaved PARP positive nuclei fraction (IST-MEL1) [%],cleaved PARP positive nuclei fraction (LB2518-MEL) [%],cleaved PARP positive nuclei fraction (LOXIMVI) [%],cleaved PARP positive nuclei fraction (MZ2-MEL) [%],cleaved PARP positive nuclei fraction (MeWo) [%],cleaved PARP positive nuclei fraction (RPMI7951) [%],cleaved PARP positive nuclei fraction (RVH-421) [%],cleaved PARP positive nuclei fraction (SkMel28) [%],cleaved PARP positive nuclei fraction (SkMel2) [%],cleaved PARP positive nuclei fraction (SkMel30) [%],cleaved PARP positive nuclei fraction (SkMel5) [%],cleaved PARP positive nuclei fraction (UACC257) [%],cleaved PARP positive nuclei fraction (UACC62) [%]
"Clc1ccc(Nc2nnc(Cc3ccncc3)c3ccccc23)cc1 [vatalanib] + O=c1cc(-c2cccc3c2Sc2ccccc2S3)oc(N2CCOCC2)c1 [KU55933] (first compound 2 µM, partner dose 1 µM)",246,37.4,123,72.5,117,139,62.4,60.1,92.2,105,47.8,52.7,87.4,54.2,46.8,231,111,81.9
"CC(=O)c1c(C)c2cnc(Nc3ccc(N4CCNCC4)cn3)nc2n(C2CCCC2)c1=O [palbociclib] + COc1ccc2c(c1)CCC1C2CCC2(C)C(NCCCCCCN3C(=O)C=CC3=O)CCC12 [U73122] (first compound 0.04 µM, partner dose 0.4 µM)",110,114,149,102,29.3,108,37.1,122,52.9,29.9,49.2,167,112,54.4,31.3,40.9,120,104
